In the supplement of paper PMC10849652:
The other results are listed elsewhere or left out.

Chains of the proteins cited; added tags and fusions are not shown. Lines headed by an entry give the natural chain unless they say otherwise; changes in a name come on top.
UniProt P11413, whole entry, looked up: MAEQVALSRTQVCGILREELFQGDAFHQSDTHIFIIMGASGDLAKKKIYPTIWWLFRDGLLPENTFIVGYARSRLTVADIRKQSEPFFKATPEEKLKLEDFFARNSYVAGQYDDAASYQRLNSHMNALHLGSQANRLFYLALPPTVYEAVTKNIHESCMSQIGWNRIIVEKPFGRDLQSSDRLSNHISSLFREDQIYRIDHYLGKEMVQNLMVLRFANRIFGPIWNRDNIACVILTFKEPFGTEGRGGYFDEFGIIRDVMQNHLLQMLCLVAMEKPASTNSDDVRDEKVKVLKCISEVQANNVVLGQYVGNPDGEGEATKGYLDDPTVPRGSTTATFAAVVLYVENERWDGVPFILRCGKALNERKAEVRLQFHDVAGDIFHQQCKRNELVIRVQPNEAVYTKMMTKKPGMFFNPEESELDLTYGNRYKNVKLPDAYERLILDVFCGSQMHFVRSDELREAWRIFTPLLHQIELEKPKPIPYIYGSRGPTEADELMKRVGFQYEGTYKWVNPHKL
UniProt P48506: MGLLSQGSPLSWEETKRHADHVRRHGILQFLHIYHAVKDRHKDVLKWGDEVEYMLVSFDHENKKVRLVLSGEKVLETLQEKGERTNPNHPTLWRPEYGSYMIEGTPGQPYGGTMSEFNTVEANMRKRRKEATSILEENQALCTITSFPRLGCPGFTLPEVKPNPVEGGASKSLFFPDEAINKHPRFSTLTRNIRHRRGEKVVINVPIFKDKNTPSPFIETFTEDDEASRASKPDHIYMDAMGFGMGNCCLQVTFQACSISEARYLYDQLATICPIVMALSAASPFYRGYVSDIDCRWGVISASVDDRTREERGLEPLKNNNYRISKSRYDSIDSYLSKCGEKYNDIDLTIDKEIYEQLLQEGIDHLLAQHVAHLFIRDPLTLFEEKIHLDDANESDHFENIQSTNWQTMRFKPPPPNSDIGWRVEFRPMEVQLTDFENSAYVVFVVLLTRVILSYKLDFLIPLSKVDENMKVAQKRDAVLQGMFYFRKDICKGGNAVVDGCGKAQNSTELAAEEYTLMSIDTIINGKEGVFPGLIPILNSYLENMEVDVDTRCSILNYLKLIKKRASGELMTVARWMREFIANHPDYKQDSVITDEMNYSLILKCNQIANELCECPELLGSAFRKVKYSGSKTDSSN
UniProt Q8TEQ6: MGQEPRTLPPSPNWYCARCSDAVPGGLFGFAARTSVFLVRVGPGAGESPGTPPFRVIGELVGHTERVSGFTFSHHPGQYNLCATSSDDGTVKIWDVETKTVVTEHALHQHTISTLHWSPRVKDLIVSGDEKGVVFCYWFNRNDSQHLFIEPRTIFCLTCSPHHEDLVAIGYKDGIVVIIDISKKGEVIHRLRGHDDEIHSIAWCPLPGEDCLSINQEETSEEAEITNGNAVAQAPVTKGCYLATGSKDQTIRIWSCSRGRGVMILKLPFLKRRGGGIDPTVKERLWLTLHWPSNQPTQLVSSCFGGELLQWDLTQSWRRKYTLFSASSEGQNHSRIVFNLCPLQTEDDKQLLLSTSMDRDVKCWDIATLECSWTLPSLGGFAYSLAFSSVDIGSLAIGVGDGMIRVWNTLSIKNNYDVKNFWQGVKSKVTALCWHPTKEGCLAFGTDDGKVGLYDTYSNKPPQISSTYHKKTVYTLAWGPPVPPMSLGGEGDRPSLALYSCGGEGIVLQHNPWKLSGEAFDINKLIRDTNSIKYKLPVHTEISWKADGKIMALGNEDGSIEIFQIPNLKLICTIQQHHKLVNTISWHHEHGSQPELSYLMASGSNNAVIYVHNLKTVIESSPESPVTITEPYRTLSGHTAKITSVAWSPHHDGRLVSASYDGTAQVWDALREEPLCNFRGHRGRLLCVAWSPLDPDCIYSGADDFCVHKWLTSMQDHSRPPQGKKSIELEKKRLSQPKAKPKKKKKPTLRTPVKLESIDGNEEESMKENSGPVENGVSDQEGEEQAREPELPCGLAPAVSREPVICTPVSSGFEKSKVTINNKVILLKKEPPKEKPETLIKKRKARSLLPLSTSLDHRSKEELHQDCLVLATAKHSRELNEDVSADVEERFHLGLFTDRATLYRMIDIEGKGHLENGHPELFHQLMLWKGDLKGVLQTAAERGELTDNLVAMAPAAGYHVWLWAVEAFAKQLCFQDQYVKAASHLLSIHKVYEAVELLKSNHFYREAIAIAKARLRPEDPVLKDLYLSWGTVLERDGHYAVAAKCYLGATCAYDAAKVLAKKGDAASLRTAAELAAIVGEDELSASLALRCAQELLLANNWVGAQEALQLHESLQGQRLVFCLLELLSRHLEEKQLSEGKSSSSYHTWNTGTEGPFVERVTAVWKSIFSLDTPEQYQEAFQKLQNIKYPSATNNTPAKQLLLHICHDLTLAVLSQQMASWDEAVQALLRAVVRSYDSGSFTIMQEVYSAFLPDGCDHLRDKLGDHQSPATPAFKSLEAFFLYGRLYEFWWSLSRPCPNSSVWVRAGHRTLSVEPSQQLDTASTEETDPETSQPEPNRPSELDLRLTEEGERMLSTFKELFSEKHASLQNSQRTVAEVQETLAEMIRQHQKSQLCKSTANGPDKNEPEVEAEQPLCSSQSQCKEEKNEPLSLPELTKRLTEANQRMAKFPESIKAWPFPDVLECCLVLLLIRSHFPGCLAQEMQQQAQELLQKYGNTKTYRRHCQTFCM
UniProt O43524: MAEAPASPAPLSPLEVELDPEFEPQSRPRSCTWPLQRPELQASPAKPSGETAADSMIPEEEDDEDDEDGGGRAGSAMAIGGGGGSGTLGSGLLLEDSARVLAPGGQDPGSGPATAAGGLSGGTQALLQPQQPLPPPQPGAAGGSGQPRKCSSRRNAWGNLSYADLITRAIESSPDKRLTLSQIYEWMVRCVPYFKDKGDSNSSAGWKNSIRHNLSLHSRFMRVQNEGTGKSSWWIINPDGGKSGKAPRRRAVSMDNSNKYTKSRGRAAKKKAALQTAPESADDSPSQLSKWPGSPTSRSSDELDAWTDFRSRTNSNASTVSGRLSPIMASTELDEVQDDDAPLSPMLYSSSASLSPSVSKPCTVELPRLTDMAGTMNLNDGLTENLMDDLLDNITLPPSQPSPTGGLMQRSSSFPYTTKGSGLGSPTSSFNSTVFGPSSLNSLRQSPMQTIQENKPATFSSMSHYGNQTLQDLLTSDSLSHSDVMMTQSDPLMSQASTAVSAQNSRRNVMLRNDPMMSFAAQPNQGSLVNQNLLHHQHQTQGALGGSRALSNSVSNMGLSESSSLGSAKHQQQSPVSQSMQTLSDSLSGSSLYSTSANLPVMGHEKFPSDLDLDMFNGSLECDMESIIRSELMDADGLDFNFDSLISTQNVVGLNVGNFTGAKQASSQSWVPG
UniProt Q9NY12: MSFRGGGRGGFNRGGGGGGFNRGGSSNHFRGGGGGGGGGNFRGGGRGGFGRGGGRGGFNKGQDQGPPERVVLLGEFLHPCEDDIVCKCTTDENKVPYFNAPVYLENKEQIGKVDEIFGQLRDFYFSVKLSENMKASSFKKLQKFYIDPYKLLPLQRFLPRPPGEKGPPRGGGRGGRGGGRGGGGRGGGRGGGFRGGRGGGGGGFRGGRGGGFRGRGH
UniProt Q96AE4: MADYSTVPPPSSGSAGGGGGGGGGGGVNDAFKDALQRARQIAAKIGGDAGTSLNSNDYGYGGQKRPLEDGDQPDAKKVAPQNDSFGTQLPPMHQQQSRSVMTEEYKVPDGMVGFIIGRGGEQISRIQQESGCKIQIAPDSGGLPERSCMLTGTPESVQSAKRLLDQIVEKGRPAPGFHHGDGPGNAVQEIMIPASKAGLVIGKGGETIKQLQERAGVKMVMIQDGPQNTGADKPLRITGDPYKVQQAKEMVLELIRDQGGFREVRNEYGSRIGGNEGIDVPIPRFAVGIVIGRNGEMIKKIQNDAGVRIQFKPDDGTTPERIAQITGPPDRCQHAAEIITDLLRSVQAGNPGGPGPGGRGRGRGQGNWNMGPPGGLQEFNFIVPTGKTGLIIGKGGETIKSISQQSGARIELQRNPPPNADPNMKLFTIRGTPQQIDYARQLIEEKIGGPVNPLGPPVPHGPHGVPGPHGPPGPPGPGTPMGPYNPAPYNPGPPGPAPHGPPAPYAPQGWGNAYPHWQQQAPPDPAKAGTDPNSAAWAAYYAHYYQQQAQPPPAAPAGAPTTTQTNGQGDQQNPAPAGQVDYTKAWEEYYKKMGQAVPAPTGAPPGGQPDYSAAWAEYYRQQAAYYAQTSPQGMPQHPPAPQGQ
UniProt Q01167: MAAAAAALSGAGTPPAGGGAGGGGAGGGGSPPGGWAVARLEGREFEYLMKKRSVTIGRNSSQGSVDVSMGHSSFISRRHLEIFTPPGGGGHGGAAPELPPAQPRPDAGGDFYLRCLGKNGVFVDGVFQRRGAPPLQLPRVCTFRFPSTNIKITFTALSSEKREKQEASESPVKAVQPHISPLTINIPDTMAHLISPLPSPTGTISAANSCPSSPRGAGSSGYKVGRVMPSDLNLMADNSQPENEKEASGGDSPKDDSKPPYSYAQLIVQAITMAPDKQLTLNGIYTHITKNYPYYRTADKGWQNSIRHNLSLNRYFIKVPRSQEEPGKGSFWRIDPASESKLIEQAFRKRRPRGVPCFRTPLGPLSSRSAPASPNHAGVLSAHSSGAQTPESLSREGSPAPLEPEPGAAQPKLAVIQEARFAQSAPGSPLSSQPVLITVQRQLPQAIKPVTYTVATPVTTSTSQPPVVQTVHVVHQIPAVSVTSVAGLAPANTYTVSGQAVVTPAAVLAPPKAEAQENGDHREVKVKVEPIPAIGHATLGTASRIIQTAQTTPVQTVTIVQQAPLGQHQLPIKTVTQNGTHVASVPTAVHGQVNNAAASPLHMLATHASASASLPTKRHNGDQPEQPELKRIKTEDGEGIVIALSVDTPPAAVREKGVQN
UniProt Q13283, whole entry, looked up: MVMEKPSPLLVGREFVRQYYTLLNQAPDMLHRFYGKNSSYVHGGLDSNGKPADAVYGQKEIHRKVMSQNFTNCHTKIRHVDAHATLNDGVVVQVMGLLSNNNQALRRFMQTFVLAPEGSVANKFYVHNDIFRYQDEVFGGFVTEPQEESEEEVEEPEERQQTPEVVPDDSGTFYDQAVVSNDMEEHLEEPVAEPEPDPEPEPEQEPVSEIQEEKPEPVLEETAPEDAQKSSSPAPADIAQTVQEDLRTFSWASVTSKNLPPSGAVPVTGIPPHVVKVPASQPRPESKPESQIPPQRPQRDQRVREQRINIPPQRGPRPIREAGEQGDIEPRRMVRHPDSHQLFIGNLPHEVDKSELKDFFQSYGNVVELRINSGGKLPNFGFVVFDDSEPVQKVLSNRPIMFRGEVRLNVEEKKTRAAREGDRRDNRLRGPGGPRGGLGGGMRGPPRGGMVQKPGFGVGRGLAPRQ
UniProt Q06546: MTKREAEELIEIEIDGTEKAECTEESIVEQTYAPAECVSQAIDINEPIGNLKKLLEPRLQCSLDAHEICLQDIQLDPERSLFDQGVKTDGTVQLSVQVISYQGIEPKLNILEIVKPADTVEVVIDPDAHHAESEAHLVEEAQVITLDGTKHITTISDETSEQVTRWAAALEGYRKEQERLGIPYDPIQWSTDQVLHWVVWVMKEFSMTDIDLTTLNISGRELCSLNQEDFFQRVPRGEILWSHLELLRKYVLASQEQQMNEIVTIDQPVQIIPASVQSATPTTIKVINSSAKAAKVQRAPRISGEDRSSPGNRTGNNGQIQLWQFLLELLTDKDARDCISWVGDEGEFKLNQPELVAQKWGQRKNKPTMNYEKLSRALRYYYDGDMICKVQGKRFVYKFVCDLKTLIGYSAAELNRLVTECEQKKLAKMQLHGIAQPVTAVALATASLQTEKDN
UniProt P04062: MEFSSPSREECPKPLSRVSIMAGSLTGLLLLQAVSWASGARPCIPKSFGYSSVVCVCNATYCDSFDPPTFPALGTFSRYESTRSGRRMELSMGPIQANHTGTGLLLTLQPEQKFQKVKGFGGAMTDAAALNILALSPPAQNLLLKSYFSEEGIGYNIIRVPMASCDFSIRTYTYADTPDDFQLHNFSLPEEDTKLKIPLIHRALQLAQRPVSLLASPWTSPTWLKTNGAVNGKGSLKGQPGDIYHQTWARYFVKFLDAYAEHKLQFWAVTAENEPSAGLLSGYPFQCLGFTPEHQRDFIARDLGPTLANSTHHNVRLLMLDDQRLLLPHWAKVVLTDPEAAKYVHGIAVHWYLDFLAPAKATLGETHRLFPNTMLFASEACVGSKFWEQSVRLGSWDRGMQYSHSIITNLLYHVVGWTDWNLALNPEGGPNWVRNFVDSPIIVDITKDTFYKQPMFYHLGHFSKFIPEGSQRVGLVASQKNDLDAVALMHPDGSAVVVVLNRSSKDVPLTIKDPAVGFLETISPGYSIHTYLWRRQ

Columns and labels:
Test in all cases: log2 fold change, soluble protein after heating vs DMSO (PISA); higher = thermal stabilisation; K562 lysate, 10 uM; active = over 0.2 and 3.5 SD of the protein, either way, in both replicates (recomputed)
alvocidib = compound: CN1CC[C@H](c2c(O)cc(O)c3c(=O)cc(-c4ccccc4Cl)oc23)[C@H](O)C1 [alvocidib]
Method in brief: (§1)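 Thermal stability, expressed as log-two fold change relative to solvent controls, is given from duplicates. Crude K562 extract in PBS pH 7.4 with 1 mM MgCl2, at 1 mg/mL protein, was treated with 10 μM compound for 30 min and heated in aliquots for 3 min across 48°C-58°C. After pooling, adjustment to 0.5% NP-40 at 4°C and centrifugation at 21,000xg for 90 min, supernatant protein was measured by TMTpro 16plex LC-MS/MS with channel sums equalised.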

Tubastatin A = compound: CN1CCc2c(c3ccccc3n2Cc2ccc(C(=O)NO)cc2)C1 [Tubastatin A]
Method in brief: as §1

[1] = compound: CNC(=O)C1=CC=CC=C1NC2=NC(=NC=C2Cl)NC3=C(C=C(C=C3)N4CCOCC4)OC
Method in brief: as §1

defactinib = compound: CNC(=O)c1ccc(Nc2ncc(C(F)(F)F)c(NCc3nccnc3N(C)S(C)(=O)=O)n2)cc1 [defactinib]
Method in brief: as §1

[2] = compound: CNc1nc(-c2ccc3c(N)n[nH]c3c2)cc(N2C[C@@H](C(=O)NC3CCCCC3)CC[C@H]2C)n1
Method in brief: as §1

encorafenib = compound: COC(=O)N[C@@H](C)CNc1nccc(-c2cn(C(C)C)nc2-c2cc(Cl)cc(NS(C)(=O)=O)c2F)n1 [encorafenib]
Method in brief: as §1

[3] = compound: COC(=O)[C@H](CCSC)NC(=O)C1=C(C=C(C=C1)NC[C@H](CS)N)C2=CC=CC=C2
Method in brief: as §1

alisertib = compound: COc1cc(Nc2ncc3c(n2)-c2ccc(Cl)cc2C(c2c(F)cccc2OC)=NC3)ccc1C(=O)O [alisertib]
Method in brief: as §1

[4] = compound: COc1cc2nc(-c3cc(F)ccc3O)nc(N[C@@H]3CNC[C@H]3C(C)(C)O)c2cc1OC
Method in brief: as §1

gefitinib = compound: COc1cc2ncnc(Nc3ccc(F)c(Cl)c3)c2cc1OCCCN1CCOCC1 [gefitinib]
Method in brief: as §1

lapatinib = compound: CS(=O)(=O)CCNCc1ccc(-c2ccc3ncnc(Nc4ccc(OCc5cccc(F)c5)c(Cl)c4)c3c2)o1 [lapatinib]
Method in brief: as §1

pictilisib = compound: CS(=O)(=O)N1CCN(Cc2cc3nc(-c4cccc5[nH]ncc45)nc(N4CCOCC4)c3s2)CC1 [pictilisib]
Method in brief: as §1

crizotinib = compound: C[C@@H](Oc1cc(-c2cnn(C3CCNCC3)c2)cnc1N)c1c(Cl)ccc(F)c1Cl [crizotinib]
Method in brief: as §1

[5] = compound: C[C@H](C1=CC=C(C=C1)C(=O)NC2=C3C=CNC3=NC=C2)N
Method in brief: as §1

duvelisib = compound: C[C@H](Nc1ncnc2nc[nH]c12)c1cc2cccc(Cl)c2c(=O)n1-c1ccccc1 [duvelisib]
Method in brief: as §1

gandotinib = compound: Cc1cc(Nc2cc(CN3CCOCC3)c3nc(C)c(Cc4ccc(Cl)cc4F)n3n2)n[nH]1 [gandotinib]
Method in brief: as §1

tozasertib = compound: Cc1cc(Nc2cc(N3CCN(C)CC3)nc(Sc3ccc(NC(=O)C4CC4)cc3)n2)n[nH]1 [tozasertib]
Method in brief: as §1

doramapimod = compound: Cc1ccc(-n2nc(C(C)(C)C)cc2NC(=O)Nc2ccc(OCCN3CCOCC3)c3ccccc23)cc1 [doramapimod]
Method in brief: as §1

bafetinib = compound: Cc1ccc(NC(=O)c2ccc(CN3CC[C@H](N(C)C)C3)c(C(F)(F)F)c2)cc1Nc1nccc(-c2cncnc2)n1 [bafetinib]
Method in brief: as §1

[6] = compound: Cc1cccc(CC(=O)N2CCc3c2ccc(-c2cn(C)c4ncnc(N)c24)c3F)n1
Method in brief: as §1

Measured: log2 fold change

GCC1 (UniProt Q96CN9)
inactive: alvocidib -0.001 | Tubastatin A 0.012 | [1] -0.021 | defactinib 0.006 | [2] -0.012 | encorafenib 0.028 | [3] -0.013 | alisertib 0.062 | [4] 0.027 | gefitinib 0.011 | lapatinib -0.004 | pictilisib 0.007 | crizotinib -0.092 | [5] 0.126 | duvelisib 0.035 | gandotinib -0.083 | tozasertib 0.103 | doramapimod 0.037 | bafetinib -0.054 | [6] 0.009

G6PD isoform 2 (UniProt P11413)
inactive: alvocidib 0.029 | Tubastatin A -0.068 | [1] 0.013 | defactinib 0.031 | [2] 0.009 | encorafenib -0.025 | [3] 0.145 | alisertib 0.021 | [4] -0.017 | gefitinib -0.023 | lapatinib 0.018 | pictilisib -0.022 | crizotinib -0.03 | [5] 0.094 | duvelisib -0.023 | gandotinib -0.063 | tozasertib -0.003 | doramapimod -0.015 | bafetinib 0.037 | [6] -0.035

GCLC (UniProt P48506)
inactive: alvocidib -0.06 | Tubastatin A 0.019 | [1] -0.012 | defactinib 0.006 | [2] 0.005 | encorafenib -0.012 | [3] 0.109 | alisertib -0.005 | [4] 0.011 | gefitinib 0.026 | lapatinib -0.035 | pictilisib -0.033 | crizotinib 0.022 | [5] -0.036 | duvelisib 0.012 | gandotinib 0.013 | tozasertib 0.01 | doramapimod 0.003 | bafetinib -0.036 | [6] 0.021

GEMIN5 (UniProt Q8TEQ6)
inactive: alvocidib 0.023 | Tubastatin A -0.21 | [1] 0.027 | defactinib 0.031 | [2] -0.007 | encorafenib 0.011 | [3] 0.057 | alisertib 0.014 | [4] -0.019 | gefitinib -0.032 | lapatinib -0.025 | pictilisib -0.006 | crizotinib -0.069 | [5] -0.029 | duvelisib 0.001 | gandotinib -0.087 | tozasertib 0.009 | doramapimod 0.012 | bafetinib -0.053 | [6] 0.017

FOXO3 (UniProt O43524)
inactive: alvocidib -0.099 | Tubastatin A -0.04 | [1] -0.018 | defactinib -0.062 | [2] -0.002 | encorafenib -0.058 | [3] -0.121 | alisertib -0.024 | [4] 0.009 | gefitinib -0.414 | lapatinib -0.005 | pictilisib -0.002 | crizotinib -0.029 | [5] -0.01 | duvelisib 0.01 | gandotinib 0.054 | tozasertib 0.007 | doramapimod 0.01 | bafetinib -0.081 | [6] 0.054

FXR2 (UniProt P51116)
inactive: alvocidib 0 | Tubastatin A -0.159 | [1] -0.083 | defactinib -0.117 | [2] -0.018 | encorafenib 0.06 | [3] 0.064 | alisertib 0.017 | [4] 0.013 | gefitinib 0.012 | lapatinib -0.002 | pictilisib -0.055 | crizotinib -0.017 | [5] -0.022 | duvelisib -0.016 | gandotinib -0.074 | tozasertib 0.009 | doramapimod 0.037 | bafetinib 0.002 | [6] 0.027

GAR1 (UniProt Q9NY12)
inactive: alvocidib 0.053 | Tubastatin A -0.009 | [1] -0.012 | defactinib -0.021 | [2] 0.081 | encorafenib -0.024 | [3] 0.03 | alisertib -0.001 | [4] 0 | gefitinib -0.033 | lapatinib -0.019 | pictilisib -0.011 | crizotinib -0.024 | [5] 0.103 | duvelisib 0.043 | gandotinib -0.094 | tozasertib -0.032 | doramapimod -0.01 | bafetinib -0.044 | [6] -0.098

FUBP1 (UniProt Q96AE4)
inactive: alvocidib -0.08 | Tubastatin A 0.082 | [1] 0.093 | defactinib -0.003 | [2] 0.064 | encorafenib 0.014 | [3] 0.034 | alisertib 0.185 | [4] -0.022 | gefitinib -0.135 | lapatinib 0.014 | pictilisib 0 | crizotinib -0.117 | [5] -0.178 | duvelisib -0.008 | gandotinib 0.126 | tozasertib -0.063 | doramapimod -0.216 | bafetinib -0.004 | [6] 0.043

GGA1 isoform 6 (UniProt Q9UJY5)
inactive: alvocidib 0.007 | Tubastatin A 0.067 | [1] -0.006 | defactinib 0.015 | [2] -0.03 | encorafenib 0.015 | [3] -0.01 | alisertib -0.015 | [4] -0.007 | gefitinib 0.003 | lapatinib 0.002 | pictilisib -0.054 | crizotinib -0.011 | [5] 0.01 | duvelisib 0.017 | gandotinib 0.012 | tozasertib -0.008 | doramapimod 0.007 | bafetinib -0.053 | [6] -0.021

Reprinted from the results shown (3 entries):
FOXO3 (UniProt O43524)
inactive: alvocidib -0.099 | Tubastatin A -0.04 | [1] -0.018 | defactinib -0.062 | [2] -0.002 | encorafenib -0.058 | [3] -0.121 | alisertib -0.024 | [4] 0.009 | gefitinib -0.414 | lapatinib -0.005 | pictilisib -0.002 | crizotinib -0.029 | [5] -0.01 | duvelisib 0.01 | gandotinib 0.054 | tozasertib 0.007 | doramapimod 0.01 | bafetinib -0.081 | [6] 0.054

FXR2 (UniProt P51116)
inactive: alvocidib 0 | Tubastatin A -0.159 | [1] -0.083 | defactinib -0.117 | [2] -0.018 | encorafenib 0.06 | [3] 0.064 | alisertib 0.017 | [4] 0.013 | gefitinib 0.012 | lapatinib -0.002 | pictilisib -0.055 | crizotinib -0.017 | [5] -0.022 | duvelisib -0.016 | gandotinib -0.074 | tozasertib 0.009 | doramapimod 0.037 | bafetinib 0.002 | [6] 0.027

GAR1 (UniProt Q9NY12)
inactive: alvocidib 0.053 | Tubastatin A -0.009 | [1] -0.012 | defactinib -0.021 | [2] 0.081 | encorafenib -0.024 | [3] 0.03 | alisertib -0.001 | [4] 0 | gefitinib -0.033 | lapatinib -0.019 | pictilisib -0.011 | crizotinib -0.024 | [5] 0.103 | duvelisib 0.043 | gandotinib -0.094 | tozasertib -0.032 | doramapimod -0.01 | bafetinib -0.044 | [6] -0.098

The results go on:

FSCN1 (UniProt Q16658)
inactive: alvocidib 0.026 | Tubastatin A 0.019 | [1] -0.002 | defactinib 0.001 | [2] -0.066 | encorafenib -0.021 | [3] -0.053 | alisertib -0.011 | [4] -0.005 | gefitinib -0.005 | lapatinib 0.008 | pictilisib -0.004 | crizotinib 0.043 | [5] 0.082 | duvelisib 0.017 | gandotinib -0.044 | tozasertib 0.011 | doramapimod -0.02 | bafetinib 0.061 | [6] -0.086

FOXK2 (UniProt Q01167)
inactive: alvocidib -0.006 | Tubastatin A 0.063 | [1] 0.01 | defactinib 0.073 | [2] -0.021 | encorafenib 0.004 | [3] 0.09 | alisertib -0.036 | [4] 0.025 | gefitinib -0.007 | lapatinib 0.032 | pictilisib -0.035 | crizotinib 0.05 | [5] 0.011 | duvelisib 0.021 | gandotinib 0.051 | tozasertib 0.051 | doramapimod 0.01 | bafetinib -0.051 | [6] -0.013

G3BP1 (UniProt Q13283)
inactive: alvocidib -0.039 | Tubastatin A 0.023 | [1] -0.006 | defactinib 0.026 | [2] -0.016 | encorafenib 0.009 | [3] 0.045 | alisertib 0.028 | [4] -0.012 | gefitinib -0.005 | lapatinib -0.001 | pictilisib -0.011 | crizotinib 0.007 | [5] -0.106 | duvelisib 0.02 | gandotinib 0.053 | tozasertib -0.005 | doramapimod -0.004 | bafetinib 0.032 | [6] 0.071

FOXRED1 (UniProt Q96CU9)
inactive: alvocidib -0.031 | Tubastatin A -0.026 | [1] 0.004 | defactinib -0.002 | [2] 0.042 | encorafenib 0.009 | [3] -0.039 | alisertib 0.025 | [4] 0.072 | gefitinib -0.012 | lapatinib -0.012 | pictilisib 0.001 | crizotinib 0.003 | [5] -0.031 | duvelisib -0.016 | gandotinib 0.015 | tozasertib 0.039 | doramapimod 0.041 | bafetinib -0.016 | [6] 0.067

GALE (UniProt Q14376)
inactive: alvocidib 0 | Tubastatin A -0.108 | [1] -0.066 | defactinib -0.037 | [2] -0.042 | encorafenib 0.003 | [3] 0.16 | alisertib -0.02 | [4] -0.028 | gefitinib 0.038 | lapatinib -0.005 | pictilisib -0.02 | crizotinib -0.01 | [5] -0.025 | duvelisib 0.004 | gandotinib -0.053 | tozasertib 0.016 | doramapimod 0.039 | bafetinib -0.086 | [6] 0.031

GABPA (UniProt Q06546)
inactive: alvocidib -0.044 | Tubastatin A -0.068 | [1] 0.009 | defactinib 0.025 | [2] 0.024 | encorafenib 0.019 | [3] 0.051 | alisertib 0.01 | [4] -0.003 | gefitinib -0.011 | lapatinib -0.012 | pictilisib -0.026 | crizotinib 0.018 | [5] -0.144 | duvelisib -0.022 | gandotinib 0.074 | tozasertib -0.011 | doramapimod 0.007 | bafetinib -0.016 | [6] 0.074

GBA (UniProt P04062)
inactive: alvocidib -0.007 | Tubastatin A -0.019 | [1] -0.005 | defactinib 0.127 | [2] -0.164 | encorafenib 0.069 | [3] 0.001 | alisertib -0.031 | [4] -0.08 | gefitinib 0.034 | lapatinib 0.054 | pictilisib 0.034 | crizotinib 0.01 | [5] 0.013 | duvelisib 0.024 | gandotinib 0.092 | tozasertib -0.141 | doramapimod 0.01 | bafetinib -0.124 | [6] -0.01
